Here are results for 57 compounds from PubChem BioAssay AID2685 (National Center for Advancing Translational Sciences (NCATS), 2010).

This assay is described as follows: qHTS Assay for Lipid Storage Modulators in Drosophila S3 Cells.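 On cell number change: cells counted by Cell Tracker Red CMTPX staining in the red channel.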 Conditions: BODIPY lipid droplet fluorescence, 18-24 h; for cell number change: measured here: cell count max response, cells fed with added oleic acid. Put shortly:
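Drosophila S3 cells got compounds at several concentrations plus oleic acid (400 uM solution). Laser-scanning cytometry with 488 nm excitation read lipid droplets at 500-530 nm and cells at 575-640 nm. Percent activity was relative to 20 uM Triacsin C.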

[1] abbreviates: measured here: lipid fluorescence (Fed channel) AC50, cells fed with added oleic acid.
Setting [2] is: measured here: cell number channel AC50, cells fed with added oleic acid.

The list shows a part of the results. Shown are side measurements of this screen, not its main read-out; they come without a call. Most of these compounds were active or inconclusive in the main read-out, so they are no random draw. The note in brackets gives the kind of curve behind each potency; many fits are weak.

Consider `CN(C)S(=O)(=O)c1ccc(Oc2ccccc2)cc1`, for which the cell number change stood at 22.2%. Besides, under setting [1], the concentration at half-maximal activity (AC50) was 6.51 µM [falling, single point].

As to `CC(=O)Nc1ccc(NC(=O)CCC(=O)NCCO)cc1`, the cell number change was -27%. Further, under setting [1], the AC50 is 29.1 µM [falling, single point].

Regarding `CN1CCN(c2ccccc2NC(=O)c2cccc([N+](=O)[O-])c2)CC1`, the cell number change is 122%. Besides, the AC50 under setting [1] was 6.51 µM [falling, single point].

Consider `Cc1cccc(C)c1-n1c(C)cc(/C=C2\C(=O)NN(c3ccccc3)C2=O)c1C`, for which the cell number change was -34.9%. Besides, the AC50 under setting [2] is 23.1 µM [falling, single point]. In addition, the AC50 under setting [1] was 23.1 µM [falling, single point].

For `CS(=O)(=O)N(Cc1ccccc1)c1ccccc1C(=O)N1CCN(c2ccccc2)CC1`, the cell number change came out at 20.7%. Under setting [1], the AC50 was 0.651 µM [falling, full curve, poor fit].

For the compound `O=C(NC1CCCC1)c1cc2nc(-c3ccco3)cc(C(F)(F)F)n2n1`, the cell number change stood at 15.4%.

Consider `Cc1ccccc1-c1nc(CS(=O)(=O)CC(=O)N2CCCCC2)c(C)o1`, for which the cell number change was 3.36%.

Regarding `CCOc1ccc(OCCn2c(S(=O)(=O)O)nc3c(N)ncnc32)cc1`, the cell number change was found to be 26.9%. Also, the AC50 under setting [1] is 25.9 µM [falling, single point].

On to `Cc1nc(C(=O)Nc2ccccc2Cl)cc2c1[nH]c1ccccc12`, for which the cell number change was 18%. The half-maximal activity concentration (AC50) under setting [1] is 29.1 µM [falling, single point].

Consider `CC1=C(C(=O)N2CCOCC2)C(c2ccccc2F)C2=C(CCCC2=O)N1` (stereo not given), for which the cell number change is -97.6%. The AC50 under setting [2] is 18.4 µM [falling, single point]. Also, the AC50 under setting [1] was 23.1 µM [falling, partial curve].

For `COc1ccc(/C=c2\s/c(=C\C(=O)C(C)(C)C)[nH]c2=O)cc1O`, the cell number change is -42.1%. Moreover, the AC50 under setting [2] is 25.9 µM [falling, single point]. In addition, the AC50 under setting [1] was 14.6 µM [falling, partial curve].

In the case of `O=C(/C=C/c1ccc(S(=O)(=O)N2CCOCC2)cc1)NC(=S)Nc1ccc(N2CCOCC2)cc1`, the cell number change was found to be 16.2%.

For `CC(C(=O)N1CCOCC1)n1cc([N+](=O)[O-])cn1` (stereo not given), the cell number change came to 13.7%. The half-maximal activity concentration (AC50) under setting [2] is 0.00461 µM [falling, full curve, poor fit].

In the case of `CC(NS(=O)(=O)c1ccc(F)cc1)C(c1cccs1)N1CCOCC1` (stereo not given), the cell number change is -35.8%. Further, the AC50 under setting [2] is 29.1 µM [falling, single point].

Consider `COC(=O)c1ccc(Cn2nc(C)c(Br)c2C)cc1`, for which the cell number change was found to be 9%. Further, the half-maximal activity concentration (AC50) under setting [2] is 0.731 µM [rising, partial curve, poor fit]. For the same compound, the half-maximal activity concentration (AC50) under setting [1] is 2.31 µM [rising, partial curve].

In the case of `COc1ccc(CCNC(=O)C(=O)NCc2ccccc2)cc1OC`, the cell number change stood at 9.61%. Besides, the half-maximal activity concentration (AC50) under setting [1] was 16.4 µM [rising, single point].

As to `COc1ccc(C(=O)NC(=S)N2CCCCC2c2cccnc2)cc1OC` (stereo not given), the cell number change was found to be 6.47%.

On to `CCSc1nc(-c2ccccc2)cc(=O)[nH]1`, for which the cell number change amounted to 14.1%. For the same compound, the concentration at half-maximal activity (AC50) under setting [2] was 3.26 µM [falling, single point]. Also, the concentration at half-maximal activity (AC50) under setting [1] is 1.64 µM [rising, partial curve, poor fit].

For `Cc1cc(C)n2nc(SCC(=O)N3CCc4ccccc43)nc2n1`, the cell number change is -35.2%. Also, the half-maximal activity concentration (AC50) under setting [2] was 3.26 µM [rising, single point]. The half-maximal activity concentration (AC50) under setting [1] was 25.9 µM [falling, partial curve, poor fit].

Turning to `O=C1c2cccc3c(O)ccc(c23)C(=O)N1Cc1ccco1`, the cell number change is -94.2%. Moreover, under setting [2], the AC50 was 25.9 µM [falling, partial curve]. Besides, the AC50 under setting [1] was 25.9 µM [falling, partial curve, poor fit].

For `CC(NCC(O)COCCC12CC3CC(CC(C3)C1)C2)c1ccccc1` (stereo not given), the cell number change was -29.9%. Further, the half-maximal activity concentration (AC50) under setting [2] was 3.66 µM [falling, full curve, poor fit]. Besides, the half-maximal activity concentration (AC50) under setting [1] was 2.31 µM [falling, partial curve].

For `CCCc1oc(C(=O)O)cc1CN1CCOCC1`, the cell number change was -86.5%. Moreover, the AC50 under setting [2] was 18.4 µM [falling, single point]. In addition, the concentration at half-maximal activity (AC50) under setting [1] is 29.1 µM [falling, single point].

For the compound `C=CCN1C(=O)C(CC(=O)Nc2ccccc2)SC1=Nc1ccc(S(N)(=O)=O)cc1` (stereo not given), the cell number change came to 0.942%. Under setting [1], the AC50 is 6.51 µM [falling, single point].

For the compound `O=C(NNS(=O)(=O)c1ccc(F)cc1F)C1Cc2c(ccc3ccccc23)O1` (stereo not given), the cell number change is -0.287%.

For the compound `CCCCN(c1ccccc1)S(=O)(=O)c1cccc(C(=O)O)c1`, the cell number change is -108%. Besides, the half-maximal activity concentration (AC50) under setting [2] is 16.4 µM [falling, partial curve]. Also, the AC50 under setting [1] is 29.1 µM [falling, single point].

With `CC1CCN(C(=O)CCN2C(=O)C3C4C=CC(C4)C3C2=O)CC1` (stereo not given), the cell number change worked out at 32.2%.

As for `CN1/C(=C/C(=O)c2ccc(Cl)cc2)Sc2cc3c(cc21)OCO3`, the cell number change was -1.35%. Under setting [1], the AC50 is 0.116 µM [rising, full curve, poor fit].

Consider `Cc1sc(NC(=O)CSc2nnc(N)s2)c(C#N)c1C`, for which the cell number change stood at 5.86%.

As for `CC(C)[C@H](NC(=O)C1CC(=O)N(c2ccc3c(c2)OCCO3)C1)C(=O)NC1CCCC1` (stereo not given in full), the cell number change turned out to be 3.44%.

As to `COc1ccc(C2C(C(=O)c3cccs3)=C(O)C(=O)N2c2nncs2)cc1` (stereo not given), the cell number change was -14.3%. Under setting [2], the half-maximal activity concentration (AC50) is 0.13 µM [falling, full curve, poor fit]. Moreover, the half-maximal activity concentration (AC50) under setting [1] is 3.26 µM [falling, single point].

Turning to `COc1ccc(OCCN2C(=O)NC(C)(c3ccc(C)cc3)C2=O)cc1` (stereo not given), the AC50 under setting [1] is 1.84 µM [falling, full curve, poor fit].

Consider `CCOC(=O)c1cc(-c2ccc(C)cc2)n(CCC(=O)NCCCOC)c1C`, for which the cell number change was determined as 48.3%. In addition, under setting [2], the AC50 is 29.1 µM [rising, single point].

For `CCCCN(CC)CCCNC(=O)c1cn(C)c(=O)c2c1c1ccccc1n2C`, the cell number change came to 25%. Besides, the AC50 under setting [1] was 32.6 µM [rising, single point].

Take `O=C1CC(c2ccc(Cl)c([N+](=O)[O-])c2)c2ccc3ccccc3c2N1` (stereo not given): the AC50 was 3.26 µM [rising, single point] under setting [2] and 2.59 µM [rising, partial curve] under setting [1].

For the compound `CC(C)(C)OC(=O)NC(CCCCNC=O)C(=O)O` (stereo not given), the cell number change is -166%. Moreover, under setting [2], the AC50 is 29.1 µM [falling, single point]. Further, under setting [1], the AC50 was 29.1 µM [falling, single point].

Take `Cc1ccc(C(=O)NCc2ccncc2)cc1S(=O)(=O)N1CCOCC1`: the cell number change was found to be 6.44%. In addition, under setting [1], the AC50 is 29.1 µM [rising, single point].

`COC(=O)c1cc(Nc2cc(C)c3c(O)cccc3n2)cc(C(=O)OC)c1`: the concentration at half-maximal activity (AC50) under setting [1] was 29.1 µM [rising, single point].

As to `COc1cccc(C(=O)CSc2nnc(CNc3nc(-c4ccccc4)cs3)n2C)c1`, the cell number change turned out to be 56.1%. Further, the AC50 under setting [2] is 8.2 µM [rising, partial curve]. Under setting [1], the half-maximal activity concentration (AC50) is 13 µM [rising, partial curve].

On to `CC(C)(C)C(=O)Nc1cccc(S(=O)(=O)NC2=NCCC2)c1`, for which the cell number change was -28.7%. The half-maximal activity concentration (AC50) under setting [2] was 0.231 µM [falling, full curve]. The concentration at half-maximal activity (AC50) under setting [1] was 1.46 µM [falling, partial curve].

As for `Cc1cc(Nc2cccc(Cl)c2)nc(N2CCOCC2)n1`, the cell number change was -5.53%. Under setting [1], the AC50 is 2.06 µM [rising, partial curve].

As for `Cc1noc(C)c1C(=O)Nc1nc(C23CC4CC(CC(C4)C2)C3)cs1`, the cell number change was -5.48%. Also, the concentration at half-maximal activity (AC50) under setting [1] was 29.1 µM [rising, single point].

`Cc1cc(C)n(CCC(=O)N/N=C/c2ccc(Cl)c([N+](=O)[O-])c2)n1`: the cell number change amounted to 20.8%. Under setting [2], the AC50 is 1.84 µM [rising, partial curve, poor fit]. Besides, under setting [1], the AC50 was 2.31 µM [rising, partial curve, poor fit].

As to `Cc1noc(C)c1S(=O)(=O)N1CCCC(C(=O)NCc2ccccc2Cl)C1` (stereo not given), the cell number change was determined as 5.65%. Moreover, under setting [1], the concentration at half-maximal activity (AC50) is 0.326 µM [falling, partial curve, poor fit].

In the case of `Cc1ccnc(SCC(=O)O)n1`, the cell number change is -2.31%. For the same compound, the AC50 under setting [1] was 1.3 µM [falling, full curve].

For `CSc1nc(N(C)C)c2ccccc2n1`, the cell number change was 125%.

Consider `CC(=O)c1ccc(-c2ccc(C(=O)NCC3CCCO3)o2)cc1` (stereo not given), for which the cell number change turned out to be 30.6%. For the same compound, the AC50 under setting [2] is 3.26 µM [rising, partial curve]. Further, the AC50 under setting [1] was 6.51 µM [rising, single point].

In the case of `COc1ccc(N2CCN(C(=O)COc3ccc(Cl)cc3Cl)CC2)cc1`, the cell number change turned out to be 59.5%. Also, the AC50 under setting [2] is 2.31 µM [rising, full curve]. The AC50 under setting [1] is 2.31 µM [rising, full curve].

As for `O=c1c(Cc2ccc(F)cc2)c(O)ccn1CC1CCCO1` (stereo not given), the cell number change is 35.8%. Besides, the AC50 under setting [2] was 0.103 µM [rising, full curve]. In addition, the AC50 under setting [1] was 3.66 µM [rising, full curve].

`CCn1c(=O)c(=O)[nH]c2cc(C(=O)N3CCN(c4ccccc4F)CC3)ccc21`: the AC50 under setting [1] is 0.651 µM [falling, single point].

Turning to `CC(C)(C)n1nnnc1C(c1cccc(C#N)c1)N1CCCc2ccccc21` (stereo not given), the cell number change was 5.67%. In addition, the half-maximal activity concentration (AC50) under setting [1] is 4.11 µM [rising, full curve, poor fit].

With `CC1(C)CC(=O)c2sc(NC(=O)c3ccco3)nc2C1`, the cell number change was -18.5%. In addition, the AC50 under setting [1] was 0.731 µM [falling, single point].

With `O=C(O)c1cccc(S(=O)(=O)Nc2cccc(S(=O)(=O)N3CCCCCC3)c2)c1`, the cell number change is 11.4%. Further, under setting [2], the AC50 was 0.0058 µM [rising, full curve, poor fit].

Take `Cc1onc(-c2ccccc2Cl)c1C(=O)OCc1nnc(-c2ccccc2)o1`: the cell number change is -26%. In addition, the AC50 under setting [1] was 0.092 µM [falling, full curve, poor fit].

Consider `CCc1ccc(OCCNC(=O)c2ccccc2SCc2ccccc2)cc1`, for which the cell number change is -7.52%. Also, the AC50 under setting [1] is 7.31 µM [falling, single point].

With `O=C(NCCN1CCOCC1)c1ccc2c(c1)N(Cc1ccccc1)CCS2`, the cell number change was 23.5%.

Consider `COc1ccc(OC)c(NC(=S)NCc2ccccc2OC)c1`, for which the cell number change is -8.27%. Besides, under setting [1], the concentration at half-maximal activity (AC50) is 6.51 µM [falling, single point].

`COn1c(SCc2cccnc2)nc2ccccc2c1=O`: the cell number change turned out to be 12.9%. Moreover, the AC50 under setting [2] was 1.84 µM [rising, single point]. Besides, the AC50 under setting [1] is 4.61 µM [rising, partial curve, poor fit].
